No constants are given. Whether binding was seen depends on the method and setting. Binding seen in cells or lysates may run through a third protein. Here binding means that the protein was enriched with, or labelled near, the bait; the list need not be complete. For part of these data: A no says only that the protein was not detected with the bait. For part of these data: Tags and fused reporters may be left off the sequences shown.
Key:
Assay in all cases: proximity labelling
[1] = molecular target: T1, MIC27-APEX2-Myc (human) (UniProt Q6UXV4)
T1 sequence: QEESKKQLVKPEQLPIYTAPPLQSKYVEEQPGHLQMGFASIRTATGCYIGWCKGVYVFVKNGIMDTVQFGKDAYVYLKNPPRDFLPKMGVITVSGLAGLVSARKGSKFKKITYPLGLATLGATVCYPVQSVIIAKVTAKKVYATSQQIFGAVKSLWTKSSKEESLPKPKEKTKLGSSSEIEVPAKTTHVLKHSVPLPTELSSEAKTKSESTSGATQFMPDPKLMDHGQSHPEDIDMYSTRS

Protein sequences, listed by entry. Tags and fused reporters are not part of them. Lines headed by an entry give the natural chain unless they say otherwise; changes in a name come on top. Residues count along the entry.
UniProt Q5TGZ0: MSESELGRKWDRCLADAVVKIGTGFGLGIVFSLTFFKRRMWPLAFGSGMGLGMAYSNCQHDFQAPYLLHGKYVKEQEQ
UniProt Q5XKP0: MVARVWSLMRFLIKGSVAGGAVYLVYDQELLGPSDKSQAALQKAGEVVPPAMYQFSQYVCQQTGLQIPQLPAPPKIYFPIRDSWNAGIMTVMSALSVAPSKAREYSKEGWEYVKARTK
UniProt O00429: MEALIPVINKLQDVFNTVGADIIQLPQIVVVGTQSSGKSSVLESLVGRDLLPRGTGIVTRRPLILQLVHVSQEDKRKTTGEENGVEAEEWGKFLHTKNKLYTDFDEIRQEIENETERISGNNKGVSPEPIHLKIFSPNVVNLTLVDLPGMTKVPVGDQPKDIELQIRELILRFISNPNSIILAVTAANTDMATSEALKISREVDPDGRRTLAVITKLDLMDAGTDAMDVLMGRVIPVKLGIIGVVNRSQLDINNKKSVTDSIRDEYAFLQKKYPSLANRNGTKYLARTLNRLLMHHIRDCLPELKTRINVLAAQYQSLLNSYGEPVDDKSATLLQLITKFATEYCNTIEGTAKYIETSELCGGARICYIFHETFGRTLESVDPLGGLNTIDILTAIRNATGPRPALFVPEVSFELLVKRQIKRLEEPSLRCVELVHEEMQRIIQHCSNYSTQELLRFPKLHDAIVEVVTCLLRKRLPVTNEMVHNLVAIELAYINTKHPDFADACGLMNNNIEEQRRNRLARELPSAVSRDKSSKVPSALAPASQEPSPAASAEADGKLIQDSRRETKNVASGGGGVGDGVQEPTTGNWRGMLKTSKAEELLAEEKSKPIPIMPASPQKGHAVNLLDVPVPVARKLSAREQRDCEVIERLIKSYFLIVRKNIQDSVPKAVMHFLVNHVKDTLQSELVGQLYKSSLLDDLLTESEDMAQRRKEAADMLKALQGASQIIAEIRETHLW
UniProt Q14318: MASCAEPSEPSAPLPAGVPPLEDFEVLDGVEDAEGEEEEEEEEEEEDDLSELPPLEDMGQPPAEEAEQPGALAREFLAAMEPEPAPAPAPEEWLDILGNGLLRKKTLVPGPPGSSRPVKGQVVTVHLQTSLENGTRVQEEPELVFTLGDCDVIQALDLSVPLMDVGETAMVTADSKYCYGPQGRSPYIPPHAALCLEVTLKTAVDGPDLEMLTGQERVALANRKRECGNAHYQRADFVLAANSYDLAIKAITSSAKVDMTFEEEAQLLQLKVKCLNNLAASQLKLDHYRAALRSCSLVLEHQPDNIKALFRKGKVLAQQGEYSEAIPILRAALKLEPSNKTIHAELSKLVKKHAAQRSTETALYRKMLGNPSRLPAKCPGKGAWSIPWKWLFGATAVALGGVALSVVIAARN
UniProt P00414: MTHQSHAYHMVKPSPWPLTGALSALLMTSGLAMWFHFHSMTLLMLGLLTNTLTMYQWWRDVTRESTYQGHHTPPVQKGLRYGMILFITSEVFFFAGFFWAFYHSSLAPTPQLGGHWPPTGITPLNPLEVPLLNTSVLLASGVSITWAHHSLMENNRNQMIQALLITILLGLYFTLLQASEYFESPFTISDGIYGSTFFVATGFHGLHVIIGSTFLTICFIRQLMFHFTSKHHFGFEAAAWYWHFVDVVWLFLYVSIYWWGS
UniProt Q96E52: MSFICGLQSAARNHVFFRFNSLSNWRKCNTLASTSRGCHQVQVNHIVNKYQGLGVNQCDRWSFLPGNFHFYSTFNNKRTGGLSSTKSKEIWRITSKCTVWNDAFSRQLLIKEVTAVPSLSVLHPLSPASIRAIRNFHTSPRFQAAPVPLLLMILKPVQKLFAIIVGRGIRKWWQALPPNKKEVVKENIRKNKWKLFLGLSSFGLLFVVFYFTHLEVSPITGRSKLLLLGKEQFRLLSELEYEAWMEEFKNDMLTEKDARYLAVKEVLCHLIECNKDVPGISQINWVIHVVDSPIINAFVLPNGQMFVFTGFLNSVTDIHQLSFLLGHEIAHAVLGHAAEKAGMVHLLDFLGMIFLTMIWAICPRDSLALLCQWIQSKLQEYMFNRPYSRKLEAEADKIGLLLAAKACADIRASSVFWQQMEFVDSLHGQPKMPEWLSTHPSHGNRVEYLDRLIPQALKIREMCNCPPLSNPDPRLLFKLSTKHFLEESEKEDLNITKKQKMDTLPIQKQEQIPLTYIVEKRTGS
UniProt Q8IXI2: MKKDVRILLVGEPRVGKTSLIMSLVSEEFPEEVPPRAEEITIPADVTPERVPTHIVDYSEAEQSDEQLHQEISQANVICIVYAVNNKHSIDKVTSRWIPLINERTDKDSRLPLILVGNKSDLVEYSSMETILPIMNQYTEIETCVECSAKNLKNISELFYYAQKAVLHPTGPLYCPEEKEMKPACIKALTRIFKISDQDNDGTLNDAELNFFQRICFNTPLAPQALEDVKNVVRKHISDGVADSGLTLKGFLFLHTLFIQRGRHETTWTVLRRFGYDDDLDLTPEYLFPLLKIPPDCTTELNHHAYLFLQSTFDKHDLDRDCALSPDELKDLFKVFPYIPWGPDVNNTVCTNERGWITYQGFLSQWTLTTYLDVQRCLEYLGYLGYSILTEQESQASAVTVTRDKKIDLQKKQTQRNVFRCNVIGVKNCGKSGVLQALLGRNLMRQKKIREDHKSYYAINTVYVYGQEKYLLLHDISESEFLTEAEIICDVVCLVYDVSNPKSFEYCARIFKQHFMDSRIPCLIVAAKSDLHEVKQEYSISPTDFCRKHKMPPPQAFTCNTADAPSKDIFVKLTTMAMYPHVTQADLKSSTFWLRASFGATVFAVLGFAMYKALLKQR
UniProt P12235: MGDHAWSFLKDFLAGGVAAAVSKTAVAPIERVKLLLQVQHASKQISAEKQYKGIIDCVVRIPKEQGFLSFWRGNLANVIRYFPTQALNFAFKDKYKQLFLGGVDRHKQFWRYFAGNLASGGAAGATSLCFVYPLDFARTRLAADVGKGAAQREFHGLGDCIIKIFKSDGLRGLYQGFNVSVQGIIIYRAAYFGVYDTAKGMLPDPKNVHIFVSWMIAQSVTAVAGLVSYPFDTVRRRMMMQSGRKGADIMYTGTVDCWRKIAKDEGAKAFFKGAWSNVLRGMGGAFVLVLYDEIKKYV
UniProt Q7Z434: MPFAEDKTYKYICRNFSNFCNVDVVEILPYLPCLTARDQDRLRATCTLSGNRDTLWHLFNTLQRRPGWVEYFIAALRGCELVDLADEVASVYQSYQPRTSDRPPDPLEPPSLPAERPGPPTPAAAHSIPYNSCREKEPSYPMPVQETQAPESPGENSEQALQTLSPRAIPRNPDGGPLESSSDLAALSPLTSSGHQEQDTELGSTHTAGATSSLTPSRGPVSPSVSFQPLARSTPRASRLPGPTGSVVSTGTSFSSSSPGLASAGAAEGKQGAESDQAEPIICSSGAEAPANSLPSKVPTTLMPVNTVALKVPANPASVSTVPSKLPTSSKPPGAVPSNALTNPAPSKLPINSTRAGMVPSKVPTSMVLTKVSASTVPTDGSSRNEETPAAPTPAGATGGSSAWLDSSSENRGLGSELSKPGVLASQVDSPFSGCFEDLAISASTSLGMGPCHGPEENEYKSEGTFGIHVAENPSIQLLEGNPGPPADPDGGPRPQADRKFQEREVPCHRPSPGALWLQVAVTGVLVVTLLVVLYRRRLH
UniProt Q9BPX6, residues 34-476: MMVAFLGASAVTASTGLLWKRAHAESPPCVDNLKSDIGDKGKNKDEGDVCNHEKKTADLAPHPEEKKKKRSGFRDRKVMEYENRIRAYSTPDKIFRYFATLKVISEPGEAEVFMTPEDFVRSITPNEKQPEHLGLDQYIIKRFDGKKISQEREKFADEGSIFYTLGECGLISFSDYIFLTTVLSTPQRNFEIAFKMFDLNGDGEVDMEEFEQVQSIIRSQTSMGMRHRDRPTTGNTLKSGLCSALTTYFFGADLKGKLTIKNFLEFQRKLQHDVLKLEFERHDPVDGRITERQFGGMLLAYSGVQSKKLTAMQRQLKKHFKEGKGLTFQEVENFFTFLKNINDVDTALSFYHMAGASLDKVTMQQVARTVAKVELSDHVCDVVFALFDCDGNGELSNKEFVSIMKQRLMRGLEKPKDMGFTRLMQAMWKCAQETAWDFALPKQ
UniProt P56962: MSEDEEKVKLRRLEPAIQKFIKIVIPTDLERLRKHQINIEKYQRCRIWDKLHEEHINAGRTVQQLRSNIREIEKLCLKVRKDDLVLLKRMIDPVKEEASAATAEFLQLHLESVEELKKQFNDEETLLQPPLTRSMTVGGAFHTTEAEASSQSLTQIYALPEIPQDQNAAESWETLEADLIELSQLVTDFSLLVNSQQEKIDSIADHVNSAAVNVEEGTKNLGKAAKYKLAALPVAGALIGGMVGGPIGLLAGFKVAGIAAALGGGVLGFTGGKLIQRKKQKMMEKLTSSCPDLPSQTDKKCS
UniProt O60830: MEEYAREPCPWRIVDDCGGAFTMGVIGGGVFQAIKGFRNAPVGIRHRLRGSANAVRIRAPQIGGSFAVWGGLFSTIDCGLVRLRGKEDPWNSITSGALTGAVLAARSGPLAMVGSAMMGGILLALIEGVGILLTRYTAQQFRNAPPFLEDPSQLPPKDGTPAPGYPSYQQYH
UniProt Q3ZCQ8, residues 45-353: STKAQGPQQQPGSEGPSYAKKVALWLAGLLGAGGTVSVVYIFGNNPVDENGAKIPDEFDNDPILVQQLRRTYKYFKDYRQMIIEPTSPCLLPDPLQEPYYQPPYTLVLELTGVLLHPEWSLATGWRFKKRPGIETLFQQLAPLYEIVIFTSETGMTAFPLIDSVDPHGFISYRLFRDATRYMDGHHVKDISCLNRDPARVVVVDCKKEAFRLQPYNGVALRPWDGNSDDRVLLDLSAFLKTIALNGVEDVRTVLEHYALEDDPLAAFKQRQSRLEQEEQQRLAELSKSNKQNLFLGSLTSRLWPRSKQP
UniProt P21796: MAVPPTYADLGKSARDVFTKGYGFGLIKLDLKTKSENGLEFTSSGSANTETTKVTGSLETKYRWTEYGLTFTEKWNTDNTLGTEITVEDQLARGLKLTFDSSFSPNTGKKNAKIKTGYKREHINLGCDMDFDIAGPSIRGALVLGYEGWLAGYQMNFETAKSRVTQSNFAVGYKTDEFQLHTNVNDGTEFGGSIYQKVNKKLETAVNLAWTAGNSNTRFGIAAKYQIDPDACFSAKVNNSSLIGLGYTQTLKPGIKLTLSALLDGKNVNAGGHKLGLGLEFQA

[2] = molecular target: T2, MIC26-APEX2-Myc (human) (UniProt Q9BUR5)
T2 sequence: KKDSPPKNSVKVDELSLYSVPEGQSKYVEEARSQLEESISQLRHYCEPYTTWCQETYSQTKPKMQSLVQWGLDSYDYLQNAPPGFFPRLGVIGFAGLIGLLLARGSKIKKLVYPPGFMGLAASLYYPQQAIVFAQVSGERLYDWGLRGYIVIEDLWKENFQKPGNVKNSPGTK

[3] = molecular target: MIC10-APEX2-Myc (human) (UniProt Q5TGZ0)
[4] = molecular target: MIC13-APEX2-Myc (human) (UniProt Q5XKP0)

Substance | binding [1] | binding [2] | binding [3] | binding [4]
DIABLO (human (endogenous in HEK293)) | binds | binds |  | 
Dynamin 1 Like (from UniProt O00429 1-736) |  |  | binds | 
FKBP Prolyl Isomerase 8 (from UniProt Q14318 1-412) | binds | binds | binds | binds
MIC13 (from UniProt Q5XKP0 1-118) | binds | binds | binds | 
MRPL46 (human (endogenous in HEK293)) | binds |  |  | 
MT-CO3 (from UniProt P00414 1-261) | no binding | no binding | binds | binds
OMA1 (from UniProt Q96E52) (enzyme) | binds | binds | binds | binds
Ras Homolog Family Member T1 (from UniProt Q8IXI2 1-618) |  |  | binds | 
SLC25A4 (from UniProt P12235 1-298) |  |  |  | binds
mitochondrial antiviral-signaling protein (from UniProt Q7Z434 1-540) | binds | binds | binds | binds
mitochondrial calcium uptake 1 (from UniProt Q9BPX6 34-476) | binds | binds | binds | binds
syntaxin 17 (from UniProt P56962 1-302) | binds | binds | binds | binds
translocase of inner membrane 17B (from UniProt O60830 1-172) | binds | binds | binds | binds
translocase of inner membrane 50 (from UniProt Q3ZCQ8 45-353) | binds | binds | binds | binds
voltage dependent anion channel 1 (from UniProt P21796 1-283) | binds | binds | binds | binds
